# In patent US20060034889A1, “Biodegradable diblock copolymers having reverse thermal gelation properties and methods of use thereof” (MacroMed, Inc., priority 2004, published 2006):
# Assay: physchem
# Settings: water
smiles,measurement,value
CC(=O)O[C@H]1C(=O)[C@@]2(C)[C@H]([C@H](OC(=O)c3ccccc3)[C@]3(O)C[C@H](OC(=O)[C@H](O)[C@@H](NC(=O)c4ccccc4)c4ccccc4)C(C)=C1C3(C)C)[C@]1(OC(C)=O)CO[C@@H]1C[C@@H]2O [paclitaxel],solubility,~4 µg/mL
